PubChem BioAssay (NCATS)
This is one part of the list. Shown are side measurements of this screen, not its main read-out; they come without a call. For some assays here: Compounds called inactive in the main read-out are mostly missing here. For some assays here: The note in brackets gives the kind of curve behind each potency; many fits are weak.

Experiments:
[1] = S16 Schwann cell PMP22 intronic element beta-lactamase assay (AID 624044); conditions: S16 rat Schwann cells, PMP22 element beta-lactamase FRET, 24 h; measured here: 460 nm blue channel
Method in brief: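 Beta-lactamase reporter under a PMP22 intronic regulatory element in stable S16 rat Schwann cells; 24 h compound exposure. 460 nm blue signal normalized between DMSO (0%) and potassium clavulanate, with 535 nm FRET tracking viability; curves classed by r2 and response.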

[2] = qHTS drug screen for cell cycle checkpoint inhibitors in PARPi-resistant BRCA-mutant ovarian cancer cell lines. (AID 1963452); conditions: PEO1/OlaR viability, CellTiter-Glo luminescence, 96 h
Method in brief: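 PEO1, PEO4 and PEO1/OlaR ovarian cancer cells, 600 per well, exposed 96 h at 37C to a dilution series. Viability read by CellTiter-Glo luminescence, normalized to DMSO and empty wells; activity summarized as Z-AUC.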

[3] = qHTS for identification of novel therapeutic agents for treatment of microphthalmiaassociated transcription factor (MiT) renal cell carcinoma (RCC) (AID 1963991); conditions: CellTiter-Glo, 48 h; for z-score: stronger effect = lower value
Method in brief: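 Curves over 11 concentrations were fitted to CellTiter-Glo luminescence, scaled between empty wells (0%) and DMSO (100%) viability. Cells were UOK109, UOK124 and UOK145 TFE3-fusion RCC lines at 500/well, exposed 48 hours at 37 C.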

[4] = qHTS assay for small molecule antagonists of retinoid X receptor alpha signaling (AID 588546); conditions: HEK293T RXRa-UAS-bla, beta-lactamase ratio, antagonist mode; measured here: W530 green channel, cytotoxicity proxy;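 also: cells stimulated with 9-cis-retinoic acid as agonist; % is scaled to controls: 0 for no effect and ±100 for the full control effect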
Method in brief: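 Beta-lactamase reporter inhibition, read as CCF4 fluorescence ratio (ex 405, em 460/530 nm) after 2 h at RT. HEK293T UAS-bla cells, 2500/well, were stimulated with 9-cis-RA at 500 or 100 nM final alongside test compound for 18 h at 37 C.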

[5] = qHTS Assay for Modulators of Human Peripheral Myelin Protein 22 (PMP22) Expression/Activity (AID 1967); conditions: Cell-based PMP22 reporter, dual-color luciferase ratio; measured here: red reporter channel AC50; EF-alpha promoter control reporter in MSC80 mouse Schwann cells
Method in brief: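 Luminescence ratio of Pmp22 promoter-driven green luciferase to EF-alpha-driven red luciferase, in engineered mouse MSC80 Schwann cells, served as read-out. Compounds were incubated 24h; untreated cells defined 0% Activity; curves were classified by r2, magnitude and activity.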

[6] = Nrf2 qHTS screen for inhibitors: Validation (AID 493153); conditions: A549 ARE-Fluc reporter, 18-24 h; AC50: CellTiter-Fluor fluorescence read, measured here: cytotoxicity CellTiter-Fluor AC50; viability change: measured here: cytotoxicity max response
Method in brief: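 Concentration-response test in A549 ARE_Fluc reporter cells (5% FBS OPTI-MEM), compound exposure 18-24 h at 37°C, 5% CO2. Cell viability measured first by CellTiter-Fluor fluorescence; ARE-driven luciferase luminescence then measured as Nrf2 activity.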

[7] = measured here: PEO1 parental viability
[8] = TFE3-RCC UOK109 viability, measured here: UOK109 Z-AUC
[9] = TFE3-RCC viability, measured here: UOK124 Z-AUC
[10] = TFE3-RCC viability, measured here: UOK145 Z-AUC
[11] = TFE3-RCC viability, measured here: UOK145 cell viability
[12] = TFE3-RCC viability, measured here: UOK124 cell viability

SMILES: CC(C)Cn1cnc2c(N)nc3ccccc3c21
- AC50 [1]: 9.99 nM [falling, full curve, poor fit]
- AC50 [2, 7]: 12 µM [rising, single point]
- z-score [3, 8]: 0.389
- z-score [3, 9]: 0.244
- z-score [3, 10]: 0.747
- AC50 [3, 11]: 23.5 µM [falling, partial curve]

SMILES: CC(C)c1cnn2c(NCc3ccccc3)cc(NCCCCCCN)nc12
- AC50 ([2]; measured here: PEO4 viability): 24.5 µM [falling, single point]
- z-score [3, 8]: -0.532
- z-score [3, 9]: 0.167
- AC50 [3, 12]: 26.4 µM [falling, single point]
- z-score [3, 10]: 0.454
- AC50 [3, 11]: 13.2 µM [falling, partial curve]

SMILES: OC1CCC(Nc2ncc3nc(Nc4c(F)cc(F)cc4F)n([C@@H]4CCOC4)c3n2)CC1 (stereo not given in full)
- AC50 ([2]; measured here: PEO4 viability): 19.5 µM [falling, partial curve, poor fit]
- z-score [3, 8]: 0.208
- z-score [3, 9]: -0.159
- AC50 [3, 12]: 10.5 µM [falling, partial curve, poor fit]
- z-score [3, 10]: 0.533
- AC50 [3, 11]: 33.2 µM [falling, single point]

SMILES: COc1ccc(-c2cc3nccn3c(Nc3ncccc3C(N)=O)n2)cc1OC
- AC50 ([2]; measured here: PEO4 viability): 0.0039 µM [rising, full curve, poor fit]
- z-score [3, 8]: 0.134
- z-score [3, 9]: 0.828
- AC50 [3, 12]: 3.72 µM [falling, full curve]
- z-score [3, 10]: 0.121
- AC50 [3, 11]: 2.96 µM [falling, full curve]

SMILES: Cc1cc(-c2ccc(CC(=O)Nc3ccc(-c4cccnc4)cc3)cc2)ccn1
- AC50 [2, 7]: 2.45 µM [falling, full curve, poor fit]
- z-score [3, 8]: 0.00414
- z-score [3, 9]: 0.767
- AC50 [3, 12]: 18.7 µM [falling, partial curve, poor fit]
- z-score [3, 10]: 0.0329
- AC50 [3, 11]: 20.9 µM [falling, partial curve]

SMILES: CC1(C)CCC(c2ccc(Cl)cc2)=C(CN2CCN(c3ccc(C(=O)NS(=O)(=O)c4ccc(N[C@H](CCN5CCOCC5)CSc5ccccc5)c(S(=O)(=O)C(F)(F)F)c4)cc3)CC2)C1
- AC50 ([2]; measured here: PEO4 viability): 1.74 µM [falling, full curve]
- z-score [3, 8]: -0.691
- z-score [3, 9]: -0.502
- AC50 [3, 12]: 13.2 µM [falling, partial curve]
- z-score [3, 10]: -0.121
- AC50 [3, 11]: 9.35 µM [falling, full curve]

SMILES: O=C(O)c1c(Cl)c(Cl)c(Cl)c(Cl)c1-c1c2cc(I)c(=O)c(I)c-2oc2c(I)c(O)c(I)cc12
- AC50 ([2]; measured here: PEO4 viability): 8.71 µM [falling, partial curve]
- z-score [3, 8]: -2.55
- z-score [3, 9]: -0.0359
- AC50 [3, 12]: 6.62 µM [falling, full curve]
- z-score [3, 10]: 0.699
- AC50 [3, 11]: 13.2 µM [falling, partial curve]

SMILES: CCN(CC)CCCCNc1ncc2cc(-c3cc(OC)cc(OC)c3)c(NC(=O)NC(C)(C)C)nc2n1
- AC50 ([2]; measured here: PEO4 viability): 24.5 µM [falling, single point]
- z-score [3, 8]: -0.133
- z-score [3, 9]: 0.154
- AC50 [3, 12]: 18.7 µM [falling, partial curve]
- z-score [3, 10]: -0.0627
- AC50 [3, 11]: 14.8 µM [falling, partial curve]

SMILES: S=P(N1CC1)(N1CC1)N1CC1
- max response [4]: -6.1%
- AC50 [2, 7]: 27.5 µM [falling, single point]
- z-score [3, 8]: 0.68
- z-score [3, 9]: 0.928
- z-score [3, 10]: 0.216
- AC50 [3, 11]: 18.7 µM [falling, partial curve, poor fit]

SMILES: NC12CC3CC(CC(C3)C1)C2
- AC50 [5]: 37.9 µM [rising, single point]
- AC50 [6]: 29.1 µM [rising, single point]
- viability change [6]: 31%
- AC50 [2, 7]: 1.55 µM [rising, partial curve, poor fit]
- z-score [3, 8]: -0.0289
- z-score [3, 9]: 0.737
- z-score [3, 10]: 0.347
- AC50 [3, 11]: 11.8 µM [falling, full curve]

SMILES: CCC(=O)N[C@H]1CC[C@H](C(=O)N(C)c2ccc(-c3nc4ccccc4o3)cc2)C1
- AC50 [2, 7]: 15.5 µM [falling, partial curve]
- z-score [3, 8]: -0.331
- z-score [3, 9]: 0.101
- AC50 [3, 12]: 26.4 µM [falling, single point]
- z-score [3, 10]: -0.512
- AC50 [3, 11]: 5.9 µM [falling, partial curve]

SMILES: Cc1ccc(C(=O)Nc2cccc(C(F)(F)F)c2)cc1Nc1nc(-c2cccnc2)nc2c1cnn2C
- AC50 [2, 7]: 7.76 µM [falling, single point]
- z-score [3, 8]: -0.199
- z-score [3, 9]: -0.769
- AC50 [3, 12]: 10.5 µM [falling, partial curve]
- z-score [3, 10]: -0.706
- AC50 [3, 11]: 8.33 µM [falling, full curve]

SMILES: NC(=O)c1c(OCc2c(F)cc(Br)cc2F)nsc1NC(=O)NCCCCN1CCCC1
- AC50 ([2]; measured here: PEO4 viability): 27.5 µM [falling, single point]
- z-score [3, 8]: -0.111
- z-score [3, 9]: -0.144
- AC50 [3, 12]: 18.7 µM [falling, partial curve]
- z-score [3, 10]: 0.185
- AC50 [3, 11]: 10.5 µM [falling, partial curve]
